# Data reported in patent US20200093843A1, “COMPOUNDS FOR TREATMENT OF INTRACTABLE EPILEPSY AND DOORS SYNDROME” (VIB VZW, priority 2016, published 2020).
# By UniProt entry, the sequences of proteins in these tests, tags left out. Residues count along the entry.
# UniProt O43426, 528-873: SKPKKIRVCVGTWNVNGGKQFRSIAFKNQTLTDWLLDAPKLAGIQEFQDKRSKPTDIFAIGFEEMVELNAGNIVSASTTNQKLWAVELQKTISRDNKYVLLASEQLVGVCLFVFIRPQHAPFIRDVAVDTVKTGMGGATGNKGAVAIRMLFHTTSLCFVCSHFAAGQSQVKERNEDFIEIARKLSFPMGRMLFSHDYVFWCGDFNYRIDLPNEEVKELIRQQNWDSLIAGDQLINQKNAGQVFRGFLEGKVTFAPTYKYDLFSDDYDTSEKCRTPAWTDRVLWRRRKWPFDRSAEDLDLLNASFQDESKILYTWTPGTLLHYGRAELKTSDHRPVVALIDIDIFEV
# Entries after “also recorded” stand apart in the source; their conditions may differ. For at least one compound, name, drawing or mass did not settle the structure.
# Target: T1, 5′-phosphatase domain of Synaptojanin-1 (Homo sapiens, UniProt O43426)
# T1 construct: made in house
# Test: Malachite Green phosphatase assay
# Type: biochemical
# Conditions: 1 mM compound, 1% DMSO, 40 μM IP3 substrate, 1 h, background subtracted
# Text: First, an expression plasmid for the recombinant expression of the 5′-phosphatase domain of Synj1 (SEQ ID NO:1) was constructed. […] A commercially available assay in a 96-well plate format is the Malachite Green Phosphate Assay Kit (BioAssay Systems).
# After assay optimization, the assay is used to measure inhibitory activity of known compounds as well as to further allow a high-throughput setup for compound screening.
# The Malachite Green Phosphate Assay Kit (BioAssay Systems) is a discontinuous assay that measures the concentrations of enzymatically released phosphate after formation of a complex with malachite green and molybdate (absorbance is measured at 620 nm). […] As a read-out the Absorbance at 620 nm after 60 min incubation is measured and the background starting signal is subtracted. For inhibitory compound screening, 1 mM of the test compound dissolved in 1% DMSO was used.
smiles,measurement,value
CCCCCCCCCCCCCCCCCCOCC(COP(=O)([O-])OCC[N+](C)(C)C)OC (stereo not shown) [Edelfosine],inhibition of 5′-phosphatase activity,effective inhibitors; also recorded: complete inhibition
